Inconclusive results, whose numbers are uncertain, are shown with a selection of clear calls. Potencies beside an inconclusive call are fits to weak or partial responses and may not hold up. Calls of active or inactive are those of the source. The calls were made as follows: active = hit-call score of the fitted dose curve at least 0.9, where 1 is the maximum; inconclusive = response in the unintended direction; inactive = score below 0.9.
Read-out: ABC Transporter (ABCB11), ABCB11 (gene 8647)
Experiment: CLD_ABCB11_48hr: CellzDirect (CLD) Gene Expression Assay for ABC Transporter (ABCB11) at 48 hours (AID 2283697)
Method: CLD_48hr is a cell-based, multiplexed-readout assay that uses hepatocyte, a human liver primary cell, with measurements taken at 48 hours after chemical dosing in a 96-well plate.CLD_ABCB11_48hr is one of 16 assay component(s) measured or calculated from the CLD_48hr assay. It is designed to make measurements of mRNA induction, a form of inducible reporter, as detected with chemiluminescence signals by Quantitative Nuclease Protection Assay (qNPA) technology.Data from the assay component CLD_ABCB11_48hr was analyzed at the endpoint, CLD_ABCB11_48hr, in the positive analysis fitting direction relative to DMSO as the negative control and baseline of activity. Using a type of inducible reporter, gain-of-signal activity can be used to understand changes in the reporter gene as they relate to the gene ABCB11. Furthermore, this assay endpoint can be referred to as a primary readout. To generalize the intended target to other relatable targets, this assay endpoint is annotated to the transporter intended target family, where subfamily is ABC transporter.
Human hepatocyte cultures were treated daily for two consecutive days with fresh dosing solutions containing appropriate concentrations of the 320 ToxCast chemicals (chemical identities were blinded to CellzDirect and other ToxCast collaborators), vehicle control (0.2% DMSO), and positive control inducers as summarized in Table 1. Due to the large number of treatment groups and chemicals examined, the ToxCast chemicals were divided into two groups (spanning two independent cultures of hepatocytes from separate donor preparations (Hu778: ToxCast plates 1 and 2; Hu776: ToxCast plates 3 and 4). Each preparation of human hepatocyte cultures was treated with respective vehicle control, medium only control, set of six positive controls/reference chemicals for the five hepatic receptor pathways, and a subset of eight of the ToxCast chemicals (indoxacarb, pyrithiobac-sodium, norflurazon, cyhalofop-butyl, methomyl, thiram, acetochlor, and propiconazole). These replicate data, coupled with internal replicates designed within the blinded ToxCast chemical library, provided additional data to evaluate interindividual differences between hepatocyte preparations and their potential impact on chemical profiles.Cell morphology and integrity were evaluated using phase-contrast microscopy as an indicator of hepatocyte cell health (Tyson & Green, 1987). Cultures for each treatment group (i.e., media, vehicle [0.2% DMSO], positive control inducers [multiple concentrations], and the ToxCast chemicals [multiple concentrations]) were observed and cell morphology was assessed relative to vehicle control cultures at each harvest time point (0, 6, 24, or 48 h). […] Images were evaluated at the conclusion of the study to assess changes in cell integrity and account for the effects of chemical exposure on uncharacteristic changes in concentration-dependent gene expression profiles. The results from these determinations of apparent cytotoxicity were annotated (yes/no) alongside the corresponding qNPA data for reference.At the conclusion of each treatment period, hepatocyte cultures (96-well) were washed with 1 volume of HBSS, lysed by addition of 25 ul ArrayPlate lysis buffer (HTG, Tucson, AZ), and 70 ul/well of Denaturation Oil, denatured by incubation at 95C for 10 min, and frozen at approximately -70C until analysis by nuclease protection assay (qNPA) (Roberts et al., 2007). For qNPA analysis, cell lysates were thawed at 50C for approximately 30 min, qNPA probes were added, and samples were incubated at 95C for 10 min to begin the detection process by denaturing the target RNA, dissociating the duplexes and secondary structure hybridization. At the conclusion of the hybridization period, S1 nuclease reagent was added to each sample to digest all nonprotected nucleotides at 50C for 60-90 min. […]

SMILES | AC50 | outcome
c1ccc2[nH]c(-c3cscn3)nc2c1 | inconclusive: 3560 nM | 
CCCCCOC(=O)COc1cc(N2C(=O)C3=C(CCCC3)C2=O)c(F)cc1Cl |  | inactive
COCCO |  | inactive
O=C(O)C1(C(=O)Nc2ccc(Cl)cc2Cl)CC1 | inconclusive: 20000 nM | 
COC(=O)c1ccccc1C(=O)O | inconclusive: 44.6 nM | 
CCCCOC(=O)[C@@H](C)Oc1ccc(Oc2ccc(C(F)(F)F)cn2)cc1 | inconclusive: 20000 nM | 
CC(C)(c1ccc(O)cc1)c1ccc(O)cc1 | inconclusive: 4.86 nM | 
Cc1nn(C)c(Oc2ccccc2)c1C=NOCc1ccc(C(=O)OC(C)(C)C)cc1 | inconclusive: 2000 nM | 
CCCCOC(=O)C(C)Oc1ccc(Oc2ccc(C(F)(F)F)cn2)cc1 (configuration not stated) | inconclusive: 68.8 nM | 
CCOC(=O)COc1cc(-n2ncc(C(F)(F)F)c(C)c2=O)c(F)cc1Cl | inconclusive: 63.8 nM | 
CCCOC(=O)c1ccc(C(=O)OCCC)nc1 |  | inactive
CN(C)C(=O)Nc1ccc(Cl)c(Cl)c1 | inconclusive: 20000 nM | 
CC1(C)C(C=C(Cl)Cl)C1C(=O)OCc1cccc(Oc2ccccc2)c1 (configuration not stated) |  | inactive
CSC(=O)c1cccc2nnsc12 | inconclusive: 576 nM | 
COc1nc(C)nc(NC(=O)NS(=O)(=O)c2ccccc2OCCCl)n1 | inconclusive: 73.7 nM | 
CCOC(=O)C(C)Oc1ccc(Oc2cnc3cc(Cl)ccc3n2)cc1 (configuration not stated) |  | inactive
N#CSCSc1nc2ccccc2s1 | active: 34100 nM | 

A different layout for 3 compounds above.

| SMILES | AC50 | outcome |
| --- | --- | --- |
| Cc1nn(C)c(Oc2ccccc2)c1C=NOCc1ccc(C(=O)OC(C)(C)C)cc1 | inconclusive: 2000 nM |  |
| CCCCOC(=O)C(C)Oc1ccc(Oc2ccc(C(F)(F)F)cn2)cc1 (configuration not stated) | inconclusive: 68.8 nM |  |
| CSC(=O)c1cccc2nnsc12 | inconclusive: 576 nM |  |
